According to paper PMC7889895, “Crystal structure of a photosynthetic LH1-RC in complex with its electron donor HiPIP” (Nature Communications, 2021):
Results are given in words; binding and its absence hold for the method and conditions named. Some results given as binding are weak or reduced against the parent protein; the word gives no strength.

Target: tetraheme cytochrome subunit of the Thermochromatium tepidum reaction center (Thermochromatium tepidum) (UniProt D2Z0P5)
Experiment: crystal structure; co-crystal by micro-batch under oil; HiPIP:LH1-RC mixed 15:1, LH1-RC 0.0694 mM; 30 mM sodium succinate pH 5, 20 mM CaCl2, 3.4% OPC, 30% PEG 1500; 20 °C; 2.9 Å; both purified

B1: high-potential iron-sulfur protein (HiPIP) of Thermochromatium tepidum (protein, UniProt P80176 1-83)
chain: AAPANAVTADDPTAIALKYNQDATKSERVAAARPGLPPEEQHCANCQFMQANVGEGDWKGCQLFPGKLINVNGWCASWTLKAG
  binding: binds weakly
